These are yes or no findings as the source states them, for the method shown. Binding seen in cells or lysates may run through a third protein. Binding calls can cover weak binding; strength is not graded here.
Target: T1, SH3RF2 (mouse (endogenous in striatum)) (UniProt Q8BZT2)
T1 sequence: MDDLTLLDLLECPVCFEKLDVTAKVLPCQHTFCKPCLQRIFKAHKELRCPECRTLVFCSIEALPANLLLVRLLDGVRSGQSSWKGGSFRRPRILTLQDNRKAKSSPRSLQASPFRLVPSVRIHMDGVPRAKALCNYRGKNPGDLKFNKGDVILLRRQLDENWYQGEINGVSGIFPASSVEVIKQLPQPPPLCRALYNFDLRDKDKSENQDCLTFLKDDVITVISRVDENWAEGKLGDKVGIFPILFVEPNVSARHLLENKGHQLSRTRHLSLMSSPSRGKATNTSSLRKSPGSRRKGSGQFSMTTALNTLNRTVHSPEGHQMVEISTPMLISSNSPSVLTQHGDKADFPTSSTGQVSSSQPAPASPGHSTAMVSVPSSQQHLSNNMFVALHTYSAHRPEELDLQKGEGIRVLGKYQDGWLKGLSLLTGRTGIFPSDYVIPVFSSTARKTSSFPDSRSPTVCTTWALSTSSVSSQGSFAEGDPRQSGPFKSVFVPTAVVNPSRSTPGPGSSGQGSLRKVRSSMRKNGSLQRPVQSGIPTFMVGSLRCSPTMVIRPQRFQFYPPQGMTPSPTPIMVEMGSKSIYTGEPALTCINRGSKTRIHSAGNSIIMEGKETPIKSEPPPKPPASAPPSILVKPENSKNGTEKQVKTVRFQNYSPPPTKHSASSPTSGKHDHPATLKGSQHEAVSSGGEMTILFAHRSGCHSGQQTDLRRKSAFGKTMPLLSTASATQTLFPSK
Assay: co-IP; endogenous proteins in mouse striatum lysate (20 mM Tris-HCl pH 7.4, 50 mM NaCl, 0.5% NP-40, 10 mM HEPES, 0.5 mM EDTA); 2 μg primary antibody on Protein A/G or Protein G magnetic beads, lysate at 4 °C overnight; western blot; for CaMKII–PPP1CC, WT and Sh3rf2 KO striatum compared

With “Ca2+/calmodulin-dependent protein kinase II (CaMKII) (mouse (endogenous in striatum)) (enzyme)” the binding was “binds”.

Reference: paper PMC12485048
